{"source": "PubChem BioAssay AID504467", "about": "(National Center for Advancing Translational Sciences (NCATS), 2011)", "note": "The campaign covered roughly 330,000 compounds. About 7,700 (2.3%) were called active. The inconclusive results got no clear call from the source; some entries with a clear call stand among them for comparison. Calls come from the whole dose curve; as a rule, active = well fitted inhibition curve with a large enough effect; inconclusive = small, poorly fitted or top-dose-only effect, or effect the other way; inactive = flat fitted curve, though single readings scatter. Where the call is inconclusive, the potency comes from a doubtful curve fit. Potency is the fitted concentration of half-maximal effect."}
{"test": "qHTS screen for small molecules that inhibit ELG1-dependent DNA repair in human embryonic kidney (HEK293T) cells expressing luciferase-tagged ELG1; note: nearly all actives have a fitted effect of over 55% in size", "conditions": "HEK293T ELG1-luciferase reporter, luminescence, 16 h, DNA damage induced by 5-fluorouridine; series mostly up to 46.1 µM", "outline": "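Quantitative HTS, concentration-response format. 2,000 cells/well co-treated with 5-fluorouridine and compound, 16 hr in 5% CO2 at 37 °C; ONE-Glo luminescence read after 30 min.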"}
{"smiles": "CCc1nnc(NC(=O)CSc2ccc(-c3ccc(-n4cccn4)cc3)nn2)s1", "Potency": "inconclusive: 5.62 µM [activator, partial curve]"}
{"smiles": "COc1ccc(-c2nn(Cc3ccccc3)cc2C(=O)N2CCN(c3ccccn3)CC2)cc1OC", "Potency": "inconclusive: 23.1 µM [inhibitor, partial curve, poor fit]"}
{"smiles": "Cc1ccc(-c2nc(C3CCCN(S(=O)(=O)c4ccc(C)cc4)C3)no2)cc1", "note": "(stereo unspecified)", "Potency": "inconclusive: 29.1 µM [inhibitor, single point]"}
{"smiles": "N#CC1(NC(=O)COC(=O)C2=COCCO2)CCCCC1", "Potency": "inactive"}
{"smiles": "N#CC1=C(N)Oc2ccc3ccc(O)cc3c2C1c1cccnc1", "note": "(stereo unspecified)", "Potency": "inconclusive: 16.4 µM [activator, partial curve, poor fit]"}
{"smiles": "CC(C)CN1CN(Cc2ccccc2)CNC1=S", "Potency": "inactive"}
{"smiles": "CCCc1cc(NCCCn2ccnc2)n2nc(C)c(-c3ccccc3)c2n1", "Potency": "inconclusive: 23.1 µM [inhibitor, single point]"}
{"smiles": "COCC1CCN(Cc2c(C(=O)N3CCc4ccccc4C3)nc3ccc(Cl)cn23)C1", "note": "(stereo unspecified)", "Potency": "inactive"}
{"smiles": "CCOc1ccccc1NC(=O)COc1coc(CN2CCc3ccccc3C2)cc1=O", "Potency": "inconclusive: 32.6 µM [inhibitor, single point]"}
{"smiles": "NS(=O)(=O)c1cccc(NC(=O)CN2CCN(S(=O)(=O)c3ccc4c(c3)OCCO4)CC2)c1", "Potency": "inconclusive: 29.1 µM [activator, single point]"}
{"smiles": "Cc1cccc(NC(=O)C2CC(=O)N/C(=N/N=C/c3ccco3)S2)c1", "note": "(stereo unspecified)", "Potency": "inactive"}
{"smiles": "COc1ccc(CSc2ccc(-c3nc4ccccn4c3NCc3ccccc3)cc2OC)cc1", "Potency": "inconclusive: 12.6 µM [inhibitor, single point]"}
{"smiles": "CC(=O)N1CC(C)Sc2ccc(S(=O)(=O)NCc3ccc(F)cc3)cc21", "note": "(stereo unspecified)", "Potency": "inconclusive: 10.3 µM [inhibitor, partial curve]"}
{"smiles": "COc1ccc(C)cc1NC(=O)CCC(=O)Nc1nnc(C(F)(F)F)s1", "Potency": "inactive"}
{"smiles": "NNC(=O)c1ccc(COc2ccc([N+](=O)[O-])cc2)o1", "Potency": "inconclusive: 7.3 µM [activator, partial curve, poor fit]"}
{"smiles": "COc1cc(-c2ccc(Nc3ccccc3C(=O)O)c(OC)c2)ccc1Nc1ccccc1C(=O)O", "Potency": "inconclusive: 0.58 µM [inhibitor, partial curve, poor fit]"}
{"smiles": "O=C(/C=C\\c1ccccc1[N+](=O)[O-])Nc1ccccc1", "Potency": "inconclusive: 9.2 µM [activator, partial curve]"}
{"smiles": "Cc1ccc(C(=O)Nc2ccc(N3CCN(S(C)(=O)=O)CC3)cc2)cc1", "Potency": "inactive"}
{"smiles": "CCCCN(Cc1cc2ccccc2[nH]c1=O)S(C)(=O)=O", "Potency": "inactive"}
{"smiles": "CCCC(=O)Nc1ccc(-c2nc3cc(C)ccc3o2)cc1", "Potency": "inconclusive: 1.64 µM [activator, partial curve]"}
{"smiles": "O=C(Nc1cccc(-c2cccc(F)c2)c1)C1CCN(C2CCC2)CC1", "Potency": "inactive"}
{"smiles": "CC(C)c1nn2c(=O)cc(COc3cccc(NC(=O)c4ccco4)c3)nc2s1", "Potency": "inactive"}
{"smiles": "Cc1cc(=O)oc2cc(NC(=O)C(C)Oc3ccc(F)cc3)ccc12", "note": "(stereo unspecified)", "Potency": "inactive"}
{"smiles": "CNc1ccc(Br)cc(C(=O)/C=C/c2ccc(Cl)cc2Cl)c1=O", "Potency": "inconclusive: 29.1 µM [inhibitor, single point]"}
{"smiles": "N/C(Cc1cccc2ccccc12)=N\\OC(=O)c1ccc2c(c1)OCO2", "Potency": "inactive"}
{"smiles": "O=C(CN1CCN(C(c2ccccc2)c2ccccc2)CC1)N1CCN(c2ccccc2)CC1", "Potency": "inconclusive: 1.46 µM [inhibitor, partial curve, poor fit]"}
{"smiles": "COc1cc(OC)c(C(=O)OC(C)C(=O)Nc2cccc(C(F)(F)F)c2)cc1OC", "note": "(stereo unspecified)", "Potency": "inactive"}
{"smiles": "CC(O)C(NS(=O)(=O)c1ccc(Cl)cc1)C(=O)OCC(=O)c1c[nH]c2ccccc12", "note": "(stereo unspecified)", "Potency": "inconclusive: 20.6 µM [inhibitor, partial curve]"}
{"smiles": "Cc1cccc(NC(=O)c2ccc(S(=O)(=O)NCc3cccnc3)cc2)c1", "Potency": "active: 14.6 µM"}
{"smiles": "CCOC(=O)c1cc(-c2ccccc2)n(CC(=O)Nc2cc(OC)cc(OC)c2)c1C", "Potency": "inactive"}
{"smiles": "O=C(Nc1cccnc1Cl)C1CCCN(c2ncnc3c2nc2n3CCCCC2)C1", "note": "(stereo unspecified)", "Potency": "active: 14.6 µM"}
{"smiles": "COc1cc2c(cc1NC(=O)C1CCCO1)oc1ccccc12", "note": "(stereo unspecified)", "Potency": "inconclusive: 3.66 µM [activator, partial curve]"}
{"smiles": "Cc1nn(CC(=O)NCc2cccnc2)c(C)c1[N+](=O)[O-]", "Potency": "inactive"}
{"smiles": "CC(=O)n1cc(/C=N/NC(=O)c2ccccc2O)c2ccccc21", "Potency": "inactive"}
{"smiles": "O=c1c(=Nc2ccccc2O)c(=O)c2ccccc12", "Potency": "inconclusive: 23.1 µM [activator, partial curve]"}
{"smiles": "CCCCn1c(-c2ccc(OC(F)F)cc2)nc2c1c(=O)[nH]c(=O)n2CC(C)C", "Potency": "inconclusive: 7.3 µM [inhibitor, partial curve]"}
{"smiles": "COc1ccc(C(=O)NC2CC2)cc1OC1CCN(Cc2ccc(Cl)cc2)CC1", "Potency": "inconclusive: 18.3 µM [inhibitor, single point]"}
{"smiles": "O=C(CSCC(=O)N1CCCCC1)Nc1nc(-c2ccc(Cl)s2)cs1", "Potency": "inconclusive: 16.4 µM [activator, partial curve]"}
{"smiles": "CC(=O)Nc1ccc(-c2cc(N)n(-c3ccccc3)n2)cc1", "Potency": "inconclusive: 20.6 µM [activator, partial curve]"}
{"smiles": "N#Cc1ccccc1OCC(=O)C1CC1", "Potency": "inactive"}
{"smiles": "COc1ccc(C(=O)/C=C/c2ccc(OC)c(O)c2)c(F)c1", "Potency": "inconclusive: 20.6 µM [activator, partial curve]"}
{"smiles": "COc1ccc(/C=N/Nc2nc3ccccc3[nH]2)c(OC)c1OC", "Potency": "inconclusive: 2.59 µM [activator, partial curve]"}
{"smiles": "CCOc1ccccc1N=C1SC(CC(=O)Nc2ccc(OC)cc2OC)C(=O)N1CCC1=CCCCC1", "note": "(stereo unspecified)", "Potency": "active: 7.31 µM"}
{"smiles": "Fc1ccc(C2CCNCC2COc2ccc3c(c2)OCO3)cc1", "note": "(stereo unspecified)", "Potency": "inconclusive: 18.3 µM [inhibitor, partial curve, poor fit]"}
{"smiles": "CC1CCN(C(=S)NC(=O)c2ccco2)CC1", "Potency": "inconclusive: 14.6 µM [activator, partial curve]"}
{"smiles": "CCC1(C)CC(CC(=O)O)(c2ccccc2OC)CCO1", "note": "(stereo unspecified)", "Potency": "inactive"}
